These are yes or no findings as the source states them, for the method shown. Some binding calls cover weakened binding; strength is not graded here.

The target of assay [1] is T1, Escherichia coli MnmG (E. coli, UniProt P0A6U3 1-629).
T1 construct: E. coli MnmG in pET14b, preceded by an N-terminal His-tag and TEV cleavage site; domains described over residues 1-629; Homodimer (β2); also called EcMnmG; β2; source: E. coli BL21(DE3), purified (Ni-NTA IMAC, Superdex200 SEC)
T1 sequence: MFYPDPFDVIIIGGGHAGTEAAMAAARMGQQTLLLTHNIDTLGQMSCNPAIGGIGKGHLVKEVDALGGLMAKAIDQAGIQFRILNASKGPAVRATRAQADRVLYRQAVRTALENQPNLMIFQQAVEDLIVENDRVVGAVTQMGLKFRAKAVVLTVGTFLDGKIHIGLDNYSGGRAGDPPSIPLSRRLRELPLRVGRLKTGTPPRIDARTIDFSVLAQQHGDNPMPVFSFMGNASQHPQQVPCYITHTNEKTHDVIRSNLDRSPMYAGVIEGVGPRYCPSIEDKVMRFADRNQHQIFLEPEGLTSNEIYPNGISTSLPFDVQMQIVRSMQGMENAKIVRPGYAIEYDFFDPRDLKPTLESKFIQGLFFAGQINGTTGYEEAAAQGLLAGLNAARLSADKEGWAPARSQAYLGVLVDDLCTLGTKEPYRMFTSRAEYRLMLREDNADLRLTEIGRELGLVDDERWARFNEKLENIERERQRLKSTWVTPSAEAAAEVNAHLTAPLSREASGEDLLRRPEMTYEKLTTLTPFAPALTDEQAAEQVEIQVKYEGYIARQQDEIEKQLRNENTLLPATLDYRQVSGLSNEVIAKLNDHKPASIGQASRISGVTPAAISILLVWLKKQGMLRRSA
The assay can be described thus: cryo-EM structure; MnmE–MnmG complex formed with GppNHp, FAD and K+ (20 mM HEPES pH 7.5, 150 mM KCl, 5 mM MgCl2, 2 mM DTT), purified by SEC; α2β2 and α4β2 classes; both purified. (In general: Size exclusion chromatography separates by hydrodynamic size, large species first.)

Assay [2] addresses T1, Escherichia coli MnmG. The assay can be described thus: mass photometry; SEC peak fraction of the complex (100 μM MnmE + 50 μM MnmG, 1 mM GppNHp, 1 mM FAD, 150 mM KCl) measured at 100 nM on a Refeyn OneMP; both purified.

B1: Escherichia coli MnmE (wild type) (enzyme, E. coli, UniProt P25522 1-454, looked up)
chain: MSDNDTIVAQATPPGRGGVGILRISGFKAREVAETVLGKLPKPRYADYLPFKDADGSVLDQGIALWFPGPNSFTGEDVLELQGHGGPVILDLLLKRILTIPGLRIARPGEFSERAFLNDKLDLAQAEAIADLIDASSEQAARSALNSLQGAFSARVNHLVEALTHLRIYVEAAIDFPDEEIDFLSDGKIEAQLNDVIADLDAVRAEARQGSLLREGMKVVIAGRPNAGKSSLLNALAGREAAIVTDIAGTTRDVLREHIHIDGMPLHIIDTAGLREASDEVERIGIERAWQEIEQADRVLFMVDGTTTDAVDPAEIWPEFIARLPAKLPITVVRNKADITGETLGMSEVNGHALIRLSARTGEGVDVLRNHLKQSMGFDTNMEGGFLARRRHLQALEQAAEHLQQGKAQLLGAWAGELLAEELRLAQQNLSEITGEFTSDDLLGRIFSSFCIGK
notes: E. coli MnmE, wild-type open reading frame in pET20b, preceded by an N-terminal His-tag and TEV cleavage site; 454 residues (K454 is the C-terminal residue); Homodimer (α2); also called EcMnmE; α2; source: E. coli BL21(DE3), purified (Ni-NTA IMAC, alkaline phosphatase treatment, second Ni-NTA, Superdex200 SEC)
For B1, the binding result in assay [1] and in assay [2] was “binds” in each case.
